Measurements: patent publication US20140093514A1

Biological target: NY-ESO-1-His
Assay: Western blot after gradient SDS-PAGE, 100 µg of protein, HRP goat anti-human IgG, exposure 1 min

B1: 21B4 (antibody, V domains shown)
VH: QVQLVESGGGVVQPGRSLRLSCTASGFRFRSHGMHWVRQAPGKGLEWVAVISYDGNNKLYADSVKGRITISRDNSKNTLFLQMNNVRAEDTAVYYCASPYTSDWQYFQYWGQGTLVIVSS
VL: EIVMTQSPATLSVSPGERATFSCRASQNISTTLAWYQQKPGQAPRLLIYDTSTRATGIPARFSGSGSGTEFTLTISSLQSEDLAVYYCQQSNSWPLTFGGGTKVEIK
  binding: no binding (tested: 1 µg/ml)

Results are given in words; binding and its absence hold for the method and conditions named.
